From the supplement of paper PMC8728848
Some of the results follow.

Experiments:
Test in all cases: glycan array binding signal (z-score within array); higher = stronger binding
Conditions in all cases: glycan notation: IUPAC condensed, linker removed
[1] = target: Man(a1-2)Man(a1-3)[Man(a1-2)Man(a1-6)]Man(a1-6)[Man(a1-2)Man(a1-2)Man(a1-3)]Man
Method in brief: (§1)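 Negative Z-scores can be read as non-binding. The Z-score is calculated within each array and then averaged across arrays of one protein sequence at different concentrations or buffers and across linkers. Arrays, 3228 in all, were curated from the Consortium for Functional Glycomics database and kept only where the protein sequence was available.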

[2] = target: Man(a1-2)Man(a1-3)[Man(a1-2)Man(a1-6)]Man(a1-6)[Man(a1-2)Man(a1-2)Man(a1-3)]Man(b1-4)GlcNAc(b1-4)GlcNAc
Method in brief: as §1

[3] = target: Man(a1-2)Man(a1-3)[Man(a1-6)]Man(a1-6)[Man(a1-2)Man(a1-3)]Man(b1-4)GlcNAc(b1-4)GlcNAc
Method in brief: as §1

[4] = target: Man(a1-2)Man(a1-6)[Man(a1-3)]Man(a1-6)[Man(a1-2)Man(a1-2)Man(a1-3)]Man
Method in brief: as §1

[5] = target: Man(a1-2)Man(a1-6)[Man(a1-3)]Man(a1-6)[Man(a1-2)Man(a1-2)Man(a1-3)]Man(b1-4)GlcNAc(b1-4)GlcNAc
Method in brief: as §1

Man(a1-3)[Man(a1-6)]Man = target: Man(a1-3)[Man(a1-6)]Man
Method in brief: as §1

[6] = target: Man(a1-3)[Man(a1-6)]Man(a1-6)[Man(a1-2)Man(a1-3)]Man(b1-4)GlcNAc(b1-4)GlcNAc
Method in brief: as §1

[7] = target: Man(a1-3)[Man(a1-6)]Man(a1-6)[Man(a1-3)]Man
Method in brief: as §1

[8] = target: Man(a1-3)[Man(a1-6)]Man(a1-6)[Man(a1-3)]Man(b1-4)GlcNAc(b1-4)GlcNAc
Method in brief: as §1

[9] = target: Man(a1-3)[Man(a1-6)]Man(b1-4)GlcNAc(b1-4)GlcNAc
Method in brief: as §1

[10] = target: Man(a1-3)[Man(a1-6)]Man(b1-4)GlcNAc(b1-4)[Fuc(a1-6)]GlcNAc
Method in brief: as §1

Man(a1-6)Man = target: Man(a1-6)Man
Method in brief: as §1

Man(b1-4)GlcNAc = target: Man(b1-4)GlcNAc
Method in brief: as §1

MurNAc(b1-4)GlcNAc = target: MurNAc(b1-4)GlcNAc
Method in brief: as §1

Neu5Ac(a2-3)Gal = target: Neu5Ac(a2-3)Gal
Method in brief: as §1

[11] = target: Neu5Ac(a2-3)Gal(b1-3)GalNAc
Method in brief: as §1

[12] = target: Neu5Ac(a2-3)Gal(b1-3)GalNAc(b1-3)Gal(a1-4)Gal(b1-4)Glc
Method in brief: as §1

[13] = target: Neu5Ac(a2-3)Gal(b1-3)GalNAc(b1-4)[Neu5Ac(a2-3)]Gal(b1-4)Glc
Method in brief: as §1

[14] = target: Neu5Ac(a2-3)Gal(b1-3)GalNAc(b1-4)[Neu5Ac(a2-8)Neu5Ac(a2-3)]Gal(b1-4)Glc
Method in brief: as §1

[15] = target: Neu5Ac(a2-3)Gal(b1-3)GalNAc6S
Method in brief: as §1

[16] = target: Neu5Ac(a2-3)Gal(b1-3)GlcNAc
Method in brief: as §1

[17] = target: Neu5Ac(a2-3)Gal(b1-3)GlcNAc(b1-2)Man
Method in brief: as §1

[18] = target: Neu5Ac(a2-3)Gal(b1-3)GlcNAc(b1-2)Man(a1-3)[GlcNAc(b1-4)][Neu5Ac(a2-3)Gal(b1-3)GlcNAc(b1-2)Man(a1-6)]Man(b1-4)GlcNAc(b1-4)GlcNAc
Method in brief: as §1

[19] = target: Neu5Ac(a2-3)Gal(b1-3)GlcNAc(b1-2)Man(a1-3)[Neu5Ac(a2-3)Gal(b1-3)GlcNAc(b1-2)Man(a1-6)]Man(b1-4)GlcNAc(b1-4)GlcNAc
Method in brief: as §1

[20] = target: Neu5Ac(a2-3)Gal(b1-3)GlcNAc(b1-3)Gal(b1-3)GlcNAc
Method in brief: as §1

[21] = target: Neu5Ac(a2-3)Gal(b1-3)GlcNAc(b1-3)Gal(b1-4)GlcNAc
Method in brief: as §1

[22] = target: Neu5Ac(a2-3)Gal(b1-3)GlcNAc(b1-3)GalNAc
Method in brief: as §1

[23] = target: Neu5Ac(a2-3)Gal(b1-3)GlcNAc(b1-4)Gal(b1-4)Glc
Method in brief: as §1

[24] = target: Neu5Ac(a2-3)Gal(b1-3)GlcNAc(b1-6)GalNAc
Method in brief: as §1

[25] = target: Neu5Ac(a2-3)Gal(b1-3)GlcNAc6S
Method in brief: as §1

[26] = target: Neu5Ac(a2-3)Gal(b1-3)[Fuc(a1-4)]GlcNAc
Method in brief: as §1

[27] = target: Neu5Ac(a2-3)Gal(b1-3)[Fuc(a1-4)]GlcNAc(b1-3)Gal(b1-3)[Fuc(a1-4)]GlcNAc
Method in brief: as §1

[28] = target: Neu5Ac(a2-3)Gal(b1-3)[Fuc(a1-4)]GlcNAc(b1-3)Gal(b1-4)[Fuc(a1-3)]GlcNAc
Method in brief: as §1

[29] = target: Neu5Ac(a2-3)Gal(b1-3)[GlcNAc(b1-6)]GalNAc
Method in brief: as §1

[30] = target: Neu5Ac(a2-3)Gal(b1-3)[Neu5Ac(a2-6)]GalNAc
Method in brief: as §1

[31] = target: Neu5Ac(a2-3)Gal(b1-3)[Neu5Ac(a2-6)]GlcNAc(b1-3)[Fuc(a1-3)[Gal(b1-4)]GlcNAc(b1-6)]Gal(b1-4)Glc
Method in brief: as §1

[32] = target: Neu5Ac(a2-3)Gal(b1-3)]Neu5Ac(a2-3)Gal(b1-4)]GlcNAc
Method in brief: as §1

Neu5Ac(a2-3)Gal(b1-4)Glc = target: Neu5Ac(a2-3)Gal(b1-4)Glc
Method in brief: as §1

[33] = target: Neu5Ac(a2-3)Gal(b1-4)GlcNAc
Method in brief: as §1

[34] = target: Neu5Ac(a2-3)Gal(b1-4)GlcNAc(b1-2)Man
Method in brief: as §1

[35] = target: Neu5Ac(a2-3)Gal(b1-4)GlcNAc(b1-2)Man(a1-3)[GlcNAc(b1-4)][Neu5Ac(a2-3)Gal(b1-4)GlcNAc(b1-2)Man(a1-6)]Man(b1-4)GlcNAc(b1-4)GlcNAc
Method in brief: as §1

[36] = target: Neu5Ac(a2-3)Gal(b1-4)GlcNAc(b1-2)Man(a1-3)[Neu5Ac(a2-3)Gal(b1-4)GlcNAc(b1-2)Man(a1-6)]Man(b1-4)GlcNAc(b1-4)GlcNAc
Method in brief: as §1

[37] = target: Neu5Ac(a2-3)Gal(b1-4)GlcNAc(b1-2)Man(a1-3)[Neu5Ac(a2-3)Gal(b1-4)GlcNAc(b1-2)Man(a1-6)]Man(b1-4)GlcNAc(b1-4)[Fuc(a1-6)]GlcNAc
Method in brief: as §1

[38] = target: Neu5Ac(a2-3)Gal(b1-4)GlcNAc(b1-2)Man(a1-3)[Neu5Ac(a2-6)Gal(b1-4)GlcNAc(b1-2)Man(a1-6)]Man(b1-4)GlcNAc(b1-4)GlcNAc
Method in brief: as §1

[39] = target: Neu5Ac(a2-3)Gal(b1-4)GlcNAc(b1-2)[Neu5Ac(a2-3)Gal(b1-4)GlcNAc(b1-4)]Man(a1-3)[GlcNAc(b1-4)][Neu5Ac(a2-3)Gal(b1-4)GlcNAc(b1-2)[Neu5Ac(a2-3)Gal(b1-4)GlcNAc(b1-6)]Man(a1-6)]Man(b1-4)GlcNAc(b1-4)GlcNAc
Method in brief: as §1

B1: FimA-N2 (Actinomyces oris) (protein)
chain: MHHHHHHSSGVDLGTENLYFQSNAWIYDVNVYPKNEAIDVDKTIQAQKLNGYGVGSLIKFPVESTAPTLDAKSFYKYFQLKDTLDERLSEVTATDVSLEGTPLQPTDYKVETKQQTVTVTFTAEGLKKIKAAPGKKVSAVFQGKVTKAGNGAITNRAQVISDTLYAEQPPTPETPPTDPENPPTSDEVISRWGDLSIKKVDTHQQGQTKA
- glycan array binding signal (z-score) [1]: -1.05
- glycan array binding signal (z-score) [2]: 0.192
- glycan array binding signal (z-score) [3]: 0.741
- glycan array binding signal (z-score) [4]: -1.28
- glycan array binding signal (z-score) [5]: -1.42
- glycan array binding signal (z-score) (Man(a1-3)[Man(a1-6)]Man): 0.03
- glycan array binding signal (z-score) [6]: -1.46
- glycan array binding signal (z-score) [7]: -0.183
- glycan array binding signal (z-score) [8]: -0.486
- glycan array binding signal (z-score) [9]: -0.508
- glycan array binding signal (z-score) [10]: -0.081
- glycan array binding signal (z-score) (Man(a1-6)Man): 1.37
- glycan array binding signal (z-score) (Man(b1-4)GlcNAc): -0.714
- glycan array binding signal (z-score) (MurNAc(b1-4)GlcNAc): 0.202
- glycan array binding signal (z-score) (Neu5Ac(a2-3)Gal): 0.301
- glycan array binding signal (z-score) [11]: 0.048
- glycan array binding signal (z-score) [12]: 1.41
- glycan array binding signal (z-score) [13]: -1.08
- glycan array binding signal (z-score) [14]: 1.03
- glycan array binding signal (z-score) [15]: -0.925
- glycan array binding signal (z-score) [16]: -0.447
- glycan array binding signal (z-score) [17]: -1.08
- glycan array binding signal (z-score) [18]: 1.31
- glycan array binding signal (z-score) [19]: 0.44
- glycan array binding signal (z-score) [20]: 0.582
- glycan array binding signal (z-score) [21]: -0.399
- glycan array binding signal (z-score) [22]: -1.53
- glycan array binding signal (z-score) [23]: -0.951
- glycan array binding signal (z-score) [24]: -0.182
- glycan array binding signal (z-score) [25]: -0.206
- glycan array binding signal (z-score) [26]: -0.119
- glycan array binding signal (z-score) [27]: 1.81
- glycan array binding signal (z-score) [28]: 0.678
- glycan array binding signal (z-score) [29]: -0.637
- glycan array binding signal (z-score) [30]: -0.67
- glycan array binding signal (z-score) [31]: -1.4
- glycan array binding signal (z-score) [32]: 0.27
- glycan array binding signal (z-score) (Neu5Ac(a2-3)Gal(b1-4)Glc): -0.144
- glycan array binding signal (z-score) [33]: -0.301
- glycan array binding signal (z-score) [34]: 0.315
- glycan array binding signal (z-score) [35]: -0.985
- glycan array binding signal (z-score) [36]: -0.393
- glycan array binding signal (z-score) [37]: -0.844
- glycan array binding signal (z-score) [38]: 1
- glycan array binding signal (z-score) [39]: -0.995
